Assay [1] concerns the target HA-tagged YAP, wild type, expressed in 293T cells (UniProt P46937). In words: co-IP; 293T cells cotransfected with HA-YAP (wild type or alanine mutants) and TWF2; precipitated with anti-HA antibody.
The target of assay [2] is His6-tagged YAP, purified (immobilised in BLI) (UniProt P46937). The assay can be described thus: BLI; Octet R8; His6-tagged YAP immobilised on HIS1K biosensors, serial dilutions of TWF2 protein; 20 mM HEPES pH 7.5, 300 mM NaCl, 2 mM MgCl2, 0.02% Tween; 360 s association, 360 s dissociation; both purified. In general terms: Biolayer interferometry detects binding as a change in optical thickness at a sensor tip.

By UniProt entry, the sequences of proteins in these tests, tags left out.
UniProt P46937: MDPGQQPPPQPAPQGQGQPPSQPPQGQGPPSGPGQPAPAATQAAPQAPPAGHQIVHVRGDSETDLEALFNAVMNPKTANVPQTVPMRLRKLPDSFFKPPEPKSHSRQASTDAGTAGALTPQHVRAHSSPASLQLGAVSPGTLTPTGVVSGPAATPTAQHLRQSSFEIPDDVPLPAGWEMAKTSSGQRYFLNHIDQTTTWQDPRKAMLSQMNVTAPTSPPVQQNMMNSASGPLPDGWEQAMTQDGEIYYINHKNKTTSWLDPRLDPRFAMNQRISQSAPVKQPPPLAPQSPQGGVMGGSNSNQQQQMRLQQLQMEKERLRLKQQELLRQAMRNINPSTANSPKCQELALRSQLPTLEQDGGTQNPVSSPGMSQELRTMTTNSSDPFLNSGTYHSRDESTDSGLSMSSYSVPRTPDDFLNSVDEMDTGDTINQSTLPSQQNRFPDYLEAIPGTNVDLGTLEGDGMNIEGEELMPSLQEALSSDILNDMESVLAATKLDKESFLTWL

No constants are given. Whether binding was seen depends on the method and setting. For some assays here: In cells and extracts the contact can be indirect. Some binding calls cover weakened binding; strength is not graded here. For some assays here: Sequences can lack the tags named with a protein.

B1: Flag-tagged TWF2, wild type, expressed in 293T cells (protein, UniProt Q6IBS0 1-349)
chain: MAHQTGIHATEELKEFFAKARAGSVRLIKVVIEDEQLVLGASQEPVGRWDQDYDRAVLPLLDAQQPCYLLYRLDSQNAQGFEWLFLAWSPDNSPVRLKMLYAATRATVKKEFGGGHIKDELFGTVKDDLSFAGYQKHLSSCAAPAPLTSAERELQQIRINEVKTEISVESKHQTLQGLAFPLQPEAQRALQQLKQKMVNYIQMKLDLERETIELVHTEPTDVAQLPSRVPRDAARYHFFLYKHTHEGDPLESVVFIYSMPGYKCSIKERMLYSSCKSRLLDSVEQDFHLEIAKKIEIGDGAELTAEFLYDEVHPKQHAFKQAFAKPKGPGGKRGHKRLIRGPGENGDDS
B1: in assay [1], the binding entry is given as “binds”.

B2: recombinant TWF2, purified (BLI analyte) (protein, UniProt Q6IBS0 1-349)
chain: MAHQTGIHATEELKEFFAKARAGSVRLIKVVIEDEQLVLGASQEPVGRWDQDYDRAVLPLLDAQQPCYLLYRLDSQNAQGFEWLFLAWSPDNSPVRLKMLYAATRATVKKEFGGGHIKDELFGTVKDDLSFAGYQKHLSSCAAPAPLTSAERELQQIRINEVKTEISVESKHQTLQGLAFPLQPEAQRALQQLKQKMVNYIQMKLDLERETIELVHTEPTDVAQLPSRVPRDAARYHFFLYKHTHEGDPLESVVFIYSMPGYKCSIKERMLYSSCKSRLLDSVEQDFHLEIAKKIEIGDGAELTAEFLYDEVHPKQHAFKQAFAKPKGPGGKRGHKRLIRGPGENGDDS
Turning to B2, the binding result in assay [2] is “binds”.

Source of the values: PMC12667553, “TWF2 Drives Tumor Progression and Sunitinib Resistance in Renal Cell Carcinoma through Hippo Signaling Suppression” (Advanced Science, 2025).
